Measurements from “University of Dundee, Small-Polar-MMV Screening Library” (2021), ChEMBL document CHEMBL3988442.

Mtb cholesterol medium: 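Growth of Mycobacterium tuberculosis over 4 days (cholesterol / DPPC medium with tyloxapol); the read-out is not stated. Tested at 50 µM. Higher reads as more growth inhibition (inferred: compounds with an IC50 in retests scored well above the rest). Of about 69,000 compounds tested this way, about 370 (0.54%) reached 50% or more in at least one test.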
Mtb glucose medium: 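Growth of Mycobacterium tuberculosis over 3 days (7H9 medium with glucose and tyloxapol); the read-out is not stated. Compounds at 50 µM. Direction is inferred from retests: higher values go with more growth inhibition. About 69,000 compounds were tested under these conditions; 1.1% (about 760) showed 50% or more at least once.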

Each number is a percent effect as filed. The record does not define 0% and 100%; most values in the screen are far below 50% and negative numbers occur (in some assays of this library far below -100). This is an unselected part of the compounds tested. Two or more numbers in one place are separate tests of the same structure; such repeats can differ widely.

SMILES: O=C(O)C(F)(F)F.[H][C@@]12CN(C(=O)c3ccncc3F)C[C@]1([H])OCCN2CC(=O)NC
Mtb cholesterol medium: -9.387
Mtb glucose medium: 2.397 and -5.26

SMILES: CCCNc1ncc(C2CC(=O)NCc3nc4ccccn4c32)cn1 (centres undefined)
Mtb cholesterol medium: 0.9536
Mtb glucose medium: -0.6203

SMILES: CC(=O)N(C)CC(=O)NC1(c2ccc(Br)cc2)CC1
Mtb cholesterol medium: -6.978
Mtb glucose medium: -11.24 and 1.789

SMILES: CNC(=O)C1(CCCc2ccncc2)CCCCN1.Cl (centres undefined)
Mtb cholesterol medium: -20.16
Mtb glucose medium: -27.24

SMILES: O=C(NCCn1ccnc1)N1CCCC1c1ccsc1 (centres undefined)
Mtb cholesterol medium: -6.262
Mtb glucose medium: -0.02441

SMILES: Cc1csc(N2CCCN(C(=O)c3ccoc3C)CC2)n1
Mtb cholesterol medium: 14.24
Mtb glucose medium: 2.634

SMILES: O=C(O)C(F)(F)F.[H][C@@]12CN(Cc3ccccc3)C[C@]1([H])C(=O)N(c1cncnc1)C2
Mtb cholesterol medium: -19.64
Mtb glucose medium: -6.543 and -0.01781

SMILES: COc1ccc(CNc2c(N3CCN(C(C)=O)CC3)c(=O)c2=O)cc1
Mtb cholesterol medium: -17.69
Mtb glucose medium: -1.526 and -3.969

SMILES: COc1cc(S(=O)(=O)Nc2cn[nH]c2)ccc1Br
Mtb cholesterol medium: -2.038
Mtb glucose medium: -5.52

SMILES: CNC(=O)CN(C)C(=O)c1cc(Cl)c(I)cc1OC
Mtb cholesterol medium: -9.225
Mtb glucose medium: -6.388

SMILES: Cc1nc(C)c(C)c(NCCSCc2[nH]cnc2C)n1
Mtb cholesterol medium: -8.745
Mtb glucose medium: -0.9635

SMILES: N#Cc1cccc(Cl)c1NCCCc1nc(=O)[nH][nH]1
Mtb cholesterol medium: -11.33
Mtb glucose medium: 9.753

SMILES: CN(Cc1csc(-c2cnn(C)c2)n1)CC1CCN(CCO)CC1
Mtb cholesterol medium: -6.76
Mtb glucose medium: -34.38

SMILES: O=C(O)C(F)(F)F.[H][C@@]12CCN(Cc3scnc3C)C[C@@]1([H])O[C@@H](c1noc(C)n1)C2
Mtb cholesterol medium: -1.828 and -8.207
Mtb glucose medium: 1.927 and -1.93

SMILES: CCn1cnc(NC(=O)NCC2CCS(=O)(=O)CC2)n1
Mtb cholesterol medium: 5.052
Mtb glucose medium: -1.781 and 3.214

SMILES: [H][C@@]12CCN(c3ccc(C)nn3)C[C@]1(C(=O)N(C)C)CCO2
Mtb cholesterol medium: -0.6575
Mtb glucose medium: -4.1

SMILES: Cc1cc(=O)[nH]c(SC(C)C(=O)N2CCCN(C3CCCC3)CC2)n1 (centres undefined)
Mtb cholesterol medium: -12.5
Mtb glucose medium: -8.551

SMILES: Cc1nn(C)c(C)c1CCC(=O)N1CCN(CCn2cncn2)CC1
Mtb cholesterol medium: -36.8
Mtb glucose medium: -46.49

SMILES: CC(C)N(CC(N)=O)Cc1csc(COc2ccc(F)cc2)n1
Mtb cholesterol medium: 3.288
Mtb glucose medium: 1.864

SMILES: Cc1cc(-n2c(C)cn(CN(C)CC3CC3)c2=O)no1
Mtb cholesterol medium: -12.63
Mtb glucose medium: 15.53 and -18.93

SMILES: COc1cccc(CC(=O)N2CCCN(c3ccnc(C)c3)CC2)c1
Mtb cholesterol medium: -18.38
Mtb glucose medium: 7.958

SMILES: CNC(=O)c1ccc(OC2CCN(S(C)(=O)=O)CC2)c(Cl)c1
Mtb cholesterol medium: -13.79
Mtb glucose medium: -11.04 and -1.298

SMILES: CC(CO)NCc1csc2c1CCCC2 (centres undefined)
Mtb cholesterol medium: 5.102
Mtb glucose medium: -1.465

SMILES: O=C(O)C(F)(F)F.O=C(O)C(F)(F)F.O=C(O)C(F)(F)F.[H][C@@]12CN(Cc3ccco3)C[C@]1([H])[C@@H](OC)CCN2Cc1ccccn1
Mtb cholesterol medium: -7.413
Mtb glucose medium: -27.83

SMILES: O=C(O)C(F)(F)F.O=C(O)C(F)(F)F.[H][C@@]12CCN(Cc3cccc(C)n3)[C@@]1([H])CCN2C(=O)Cc1cccs1
Mtb cholesterol medium: -22.82
Mtb glucose medium: 3.822

The first 2 entries again:

* O=C(O)C(F)(F)F.[H][C@@]12CN(C(=O)c3ccncc3F)C[C@]1([H])OCCN2CC(=O)NC | Mtb cholesterol medium: -9.387%; Mtb glucose medium: 2.397% and -5.26%
* CCCNc1ncc(C2CC(=O)NCc3nc4ccccn4c32)cn1 (centres undefined) | Mtb cholesterol medium: 0.9536%; Mtb glucose medium: -0.6203%